What was measured:
Type in all cases: cell-based, human
Sk-Ov-3 = test: MTT cytotoxicity assay, Sk-Ov-3; conditions: read-out: IC50 Sk-Ov-3, cells treated for 24 h
HeLa = test: MTT cytotoxicity assay, HeLa; conditions: read-out: IC50 HeLa, cells treated for 24 h
A549 = test: MTT cytotoxicity assay, A549; conditions: read-out: IC50 A549, cells treated for 24 h

In the case of `N.N.[Cl][Pt][Cl]` [Cisplatin], the IC50 (Sk-Ov-3) is reported as 14.4 ± 0.43 µM, the IC50 (HeLa) is reported as 13.6 ± 2.63 µM and the IC50 (A549) is reported as 21.3 ± 2.74 µM.

Source: PMC9049676 (RSC Advances, 2020)
